The test concerns the target T1, NR-LU-10 or NR-LU-13 antigen (approximately 40 kilodalton glycoprotein antigen expressed by many carcinomas) (human) (UniProt P16422).
T1 sequence (looked up): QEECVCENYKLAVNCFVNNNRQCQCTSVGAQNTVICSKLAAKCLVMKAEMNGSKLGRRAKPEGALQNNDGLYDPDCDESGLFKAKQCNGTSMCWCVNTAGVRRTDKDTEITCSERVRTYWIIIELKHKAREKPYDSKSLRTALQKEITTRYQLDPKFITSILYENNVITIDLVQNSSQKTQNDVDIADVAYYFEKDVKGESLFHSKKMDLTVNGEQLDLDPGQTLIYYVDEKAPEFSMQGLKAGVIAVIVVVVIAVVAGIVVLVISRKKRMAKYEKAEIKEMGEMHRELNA
As to the kind of experiment: competitive ELISA, plate coated with NP40 extract of LS174 cells, competitor peroxidase-labeled murine NR-LU-10. In general terms: ELISA stands for enzyme-linked immunosorbent assay.

Results are given in words; binding and its absence hold for the method and conditions named. Some entries that bind do so weakly or less than the wild type.

B1: humanized NRX451 antibody (antibody, V domains shown)
VH: QVQLVQSGAEVKKPGASVKVSCKASGFNIKDTYMHWVRQAPGQGLQWMGRIDPANGNTKCDLSFQGRVTITADTSINTAYMELSSLRSDDTAVYYCSREVLTGTWSLDYWGQGTLVTVSS
VL: DIQMTQSPSSLSASVGDRVTITCRASQGIRGNLDWYQQKPGKGPKLLIYSTSNLNSGVPSRFSGSGSGSDYTLTISSLQPEDFATYYCLQRNAYPYTFGQGTKLEIK
In the case of B1, the binding result is on record as “binds”.

The values are drawn from patent US6358710.
